Source: US20230357425A1
Results are given in words; binding and its absence hold for the method and conditions named. A result given as binding can be weak or reduced; the word gives no strength.

Target: Cynomolgus monkey CD73 on HEK293-cynoCD73 stable cell line (cynomolgus monkey)
Experiment: flow cytometry on HEK293-cynoCD73 stable cells

binding: binds
B1: Tab1 (antibody, human IgG1, lambda, V domains shown)
VH: EVQLLESGGGLVQPGGSLRLSCAASGFTFSSYAYSWVRQAPGKGLEWVSAISGSGGRTYYADSVKGRFTISRDNSKNTLYLQMNSLRAEDTAVYYCARLGYGRVDEWGRGTLVTVSS
VL: QSVLTQPPSASGTPGQRVTISCSGSLSNIGRNPVNWYQQLPGTAPKLLIYLDNLRLSGVPDRFSGSKSGTSASLAISGLQSEDEADYYCATWDDSHPGWTFGGGTKLTVLG
